Data: patent publication US5266562A, “Anti-inflammatory agents” (The United States of America as represented by the …, priority 1987, dated 1993)
Part of at least one peptide drawing is inferred or uncertain, most often the ends. No end group written: not given here.

System: carragennin induced inflammation and edema in rat footpad
Experiment: Carrageenan induced inflammation and edema in rat foot pads
Type: in vivo
Conditions: 0.2 ml of 10 μM solution intravenously, then carrageenin in footpads, FIG. 1

For MQMNKVLDS [Antiflammin-1], the “Edema and inflammation in rat foot pads (in words)” value was “absence of edema and inflammation on both feet”.
